Results reported in patent US20080241144A1.
No constants are given. Whether binding was seen depends on the method and setting. Binding seen in cells or lysates may run through a third protein. Some entries that bind do so weakly or less than the wild type.

What was measured:
[1] = biological target: T1, Prohibitin (PHB) (Homo sapiens) (UniProt P35232); test: co-immunoprecipitation: PHB IP from HeLa lysates, Raf-1 immunoblot (FIG. S3)
T1 sequence: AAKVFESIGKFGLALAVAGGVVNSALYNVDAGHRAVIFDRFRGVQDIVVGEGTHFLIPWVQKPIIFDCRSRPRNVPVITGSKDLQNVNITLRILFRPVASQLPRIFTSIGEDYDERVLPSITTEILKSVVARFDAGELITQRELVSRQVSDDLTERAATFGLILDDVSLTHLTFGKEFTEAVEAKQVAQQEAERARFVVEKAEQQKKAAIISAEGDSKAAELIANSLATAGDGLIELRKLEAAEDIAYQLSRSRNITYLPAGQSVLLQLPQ

[2] = biological target: T1, Prohibitin (PHB) (Homo sapiens); test: co-immunoprecipitation: endogenous PHB precipitated from EGF or buffer treated HeLa cells, Raf-1 immunoblot
[3] = biological target: T1, Prohibitin (PHB) (Homo sapiens); test: co-immunoprecipitation: PHB IP from HeLa lysates, Raf-1 pS338 immunoblot (FIG. S3)
[4] = biological target: T1, Prohibitin (PHB) (Homo sapiens); test: co-immunoprecipitation: endogenous PHB precipitated from EGF or buffer treated HeLa cells, Raf-1 pS338 immunoblot

Substance	binding [1]	binding [2]	binding [3]	binding [4]
Raf-1 (from UniProt P04049 1-648) (enzyme)	binds	binds		
Raf-1 pS338 (from UniProt P04049 1-648) (enzyme)			binds	binds
